# Reference: publication PMC12681812
# Protein sequences, listed by entry. Tags and fused reporters are not part of them.
# UniProt Q9R1E0: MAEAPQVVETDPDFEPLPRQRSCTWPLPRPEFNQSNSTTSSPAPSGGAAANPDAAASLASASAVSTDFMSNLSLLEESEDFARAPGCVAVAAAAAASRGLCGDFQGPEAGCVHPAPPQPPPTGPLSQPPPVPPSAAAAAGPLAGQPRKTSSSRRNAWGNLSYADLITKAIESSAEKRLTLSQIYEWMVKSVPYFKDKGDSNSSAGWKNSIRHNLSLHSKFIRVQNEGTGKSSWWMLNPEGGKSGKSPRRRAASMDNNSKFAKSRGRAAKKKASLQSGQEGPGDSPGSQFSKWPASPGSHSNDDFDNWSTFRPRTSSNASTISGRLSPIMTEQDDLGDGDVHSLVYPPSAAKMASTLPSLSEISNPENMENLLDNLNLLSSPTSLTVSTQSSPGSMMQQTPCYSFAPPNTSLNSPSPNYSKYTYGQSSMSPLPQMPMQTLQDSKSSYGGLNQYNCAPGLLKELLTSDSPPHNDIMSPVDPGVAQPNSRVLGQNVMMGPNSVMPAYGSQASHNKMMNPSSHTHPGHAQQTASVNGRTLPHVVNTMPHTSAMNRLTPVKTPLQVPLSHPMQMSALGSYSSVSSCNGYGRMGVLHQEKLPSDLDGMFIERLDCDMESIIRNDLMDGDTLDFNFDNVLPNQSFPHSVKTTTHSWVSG
# These are yes or no findings as the source states them, for the method shown. Binding seen in cells or lysates may run through a third protein. Some entries that bind do so weakly or less than the wild type. For part of these data: Sequences can lack the tags named with a protein.
# T1: mouse Sin3a (NM_001110350.2) in pEGFP-N1 (mouse) (UniProt Q60520)
# T1 sequence: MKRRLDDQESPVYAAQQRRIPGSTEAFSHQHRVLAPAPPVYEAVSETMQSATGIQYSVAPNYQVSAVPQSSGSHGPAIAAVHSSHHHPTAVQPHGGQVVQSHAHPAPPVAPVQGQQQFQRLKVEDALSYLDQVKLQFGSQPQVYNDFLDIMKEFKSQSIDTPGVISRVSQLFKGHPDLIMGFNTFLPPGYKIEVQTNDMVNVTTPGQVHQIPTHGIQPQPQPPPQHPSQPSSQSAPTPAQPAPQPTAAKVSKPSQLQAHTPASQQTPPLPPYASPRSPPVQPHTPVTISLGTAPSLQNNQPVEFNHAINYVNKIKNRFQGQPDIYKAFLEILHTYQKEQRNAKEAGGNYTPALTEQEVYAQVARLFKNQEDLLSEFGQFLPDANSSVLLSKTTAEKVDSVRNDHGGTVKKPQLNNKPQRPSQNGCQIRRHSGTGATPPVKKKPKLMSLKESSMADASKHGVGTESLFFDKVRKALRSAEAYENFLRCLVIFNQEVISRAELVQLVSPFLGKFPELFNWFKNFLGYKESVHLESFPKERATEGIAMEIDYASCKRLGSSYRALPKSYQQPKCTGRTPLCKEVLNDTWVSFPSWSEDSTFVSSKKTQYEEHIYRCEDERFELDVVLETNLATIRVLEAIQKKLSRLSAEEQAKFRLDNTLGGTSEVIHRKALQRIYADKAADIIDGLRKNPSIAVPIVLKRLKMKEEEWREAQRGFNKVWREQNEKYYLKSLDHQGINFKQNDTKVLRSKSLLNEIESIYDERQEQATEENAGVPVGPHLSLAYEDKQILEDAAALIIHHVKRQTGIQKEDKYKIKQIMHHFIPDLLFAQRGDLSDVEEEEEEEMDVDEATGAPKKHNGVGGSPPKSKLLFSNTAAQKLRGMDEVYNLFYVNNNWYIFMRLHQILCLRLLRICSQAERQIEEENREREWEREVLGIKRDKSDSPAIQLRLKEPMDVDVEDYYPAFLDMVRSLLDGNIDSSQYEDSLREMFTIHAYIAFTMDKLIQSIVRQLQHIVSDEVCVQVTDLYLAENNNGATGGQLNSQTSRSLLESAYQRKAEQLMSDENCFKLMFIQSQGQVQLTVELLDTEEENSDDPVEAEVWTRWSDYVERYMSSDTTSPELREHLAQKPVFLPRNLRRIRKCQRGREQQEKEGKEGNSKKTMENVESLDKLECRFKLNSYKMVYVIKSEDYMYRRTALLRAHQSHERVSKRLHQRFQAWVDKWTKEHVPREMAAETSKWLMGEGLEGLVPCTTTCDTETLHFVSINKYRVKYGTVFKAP
# What was measured:
# [1] = target: T1, mouse Sin3a (NM_001110350.2) in pEGFP-N1 (mouse); assay: co-IP; RAW264.7 cells transfected with Sin3a or mutant plasmids (pEGFP-N1), under LPS treatment; precipitated by anti-GFP antibody, western blot
# [2] = target: Forkhead Box O1 (FoxO1) (mouse (endogenous in RAW264.7 and in primary mouse macrophages)) (UniProt Q9R1E0); assay: co-IP; lysate of RAW264.7 cells under 24 h LPS treatment; anti-FoxO1 antibody or IgG, Protein A/G agarose beads, western blot
# [3] = target: Forkhead Box O1 (FoxO1) (mouse (endogenous in RAW264.7 and in primary mouse macrophages)) (UniProt Q9R1E0); assay: co-IP; Tim4+ primary macrophages from FoxO1 FL/FL and FoxO1 M-KO septic mice; western blot of the immunoprecipitate
binding [1],binding [2],binding [3],Molecule
binds,–,–,Forkhead Box O1 (FoxO1) (from UniProt Q9R1E0 1-652)
–,binds,binds,"SIN3 transcription regulator family member A (Sin3a) (protein, UniProt Q60520-1 1-1277) MKRRLDDQESPVYAAQQRRIPGSTEAFSHQHRVLAPAPPVYEAVSETMQSATGIQYSVAPNYQVSAVPQSSGSHGPAIAAVHSSHHHPTAVQPHGGQVVQSHAHPAPPVAPVQGQQQFQRLKVEDALSYLDQVKLQFGSQPQVYNDFLDIMKEFKSQSIDTPGVISRVSQLFKGHPDLIMGFNTFLPPGYKIEVQTNDMVNVTTPGQVHQIPTHGIQPQPQPPPQHPSQPSSQSAPTPAQPAPQPTAAKVSKPSQLQAHTPASQQTPPLPPYASPRSPPVQPHTPVTISLGTAPSLQNNQPVEFNHAINYVNKIKNRFQGQPDIYKAFLEILHTYQKEQRNAKEAGGNYTPALTEQEVYAQVARLFKNQEDLLSEFGQFLPDANSSVLLSKTTAEKVDSVRNDHGGTVKKPQLNNKPQRPSQNGCQIRRHSGTGATPPVKKKPKLMSLKESSMADASKHGVGTESLFFDKVRKALRSAEAYENFLRCLVIFNQEVISRAELVQLVSPFLGKFPELFNWFKNFLGYKESVHLESFPKERATEGIAMEIDYASCKRLGSSYRALPKSYQQPKCTGRTPLCKEVLNDTWVSFPSWSEDSTFVSSKKTQYEEHIYRCEDERFELDVVLETNLATIRVLEAIQKKLSRLSAEEQAKFRLDNTLGGTSEVIHRKALQRIYADKAADIIDGLRKNPSIAVPIVLKRLKMKEEEWREAQRGFNKVWREQNEKYYLKSLDHQGINFKQNDTKVLRSKSLLNEIESIYDERQEQATEENAGVPVGPHLSLAYEDKQILEDAAALIIHHVKRQTGIQKEDKYKIKQIMHHFIPDLLFAQRGDLSDVEEEEEEEMDVDEATGAPKKHNGVGGSPPKSKLLFSNTAAQKLRGMDEVYNLFYVNNNWYIFMRLHQILCLRLLRICSQAERQIEEENREREWEREVLGIKRDKSDSPAIQLRLKEPMDVDVEDYYPAFLDMVRSLLDGNIDSSQYEDSLREMFTIHAYIAFTMDKLIQSIVRQLQHIVSDEVCVQVTDLYLAENNNGATGGQLNSQTSRSLLESAYQRKAEQLMSDENCFKLMFIQSQGQVQLTVELLDTEEENSDDPVEAEVWTRWSDYVERYMSSDTTSPELREHLAQKPVFLPRNLRRIRKCQRGREQQEKEGKEGNSKKTMENVESLDKLECRFKLNSYKMVYVIKSEDYMYRRTALLRAHQSHERVSKRLHQRFQAWVDKWTKEHVPREMAAETSKWLMGEGLEGLVPCTTTCDTETLHFVSINKYRVKYGTVFKAP"
